## Screening data, single-dose tests

Amino acid sequences for entries named in this document (tags omitted).
UniProt P9WPC5, whole entry: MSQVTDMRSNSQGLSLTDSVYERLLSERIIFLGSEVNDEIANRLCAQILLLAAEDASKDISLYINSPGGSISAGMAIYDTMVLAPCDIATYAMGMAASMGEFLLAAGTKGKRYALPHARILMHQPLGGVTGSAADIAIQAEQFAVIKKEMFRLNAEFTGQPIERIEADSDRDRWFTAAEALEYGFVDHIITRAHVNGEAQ
UniProt P9WPC3, whole entry partner: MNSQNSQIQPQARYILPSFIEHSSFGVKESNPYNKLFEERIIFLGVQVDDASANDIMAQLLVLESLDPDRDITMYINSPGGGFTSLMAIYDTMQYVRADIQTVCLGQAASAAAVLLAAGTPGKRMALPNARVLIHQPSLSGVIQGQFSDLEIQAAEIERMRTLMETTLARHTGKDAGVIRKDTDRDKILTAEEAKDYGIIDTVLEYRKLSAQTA

Data taken from ChEMBL document CHEMBL3988442, “University of Dundee, Small-Polar-MMV Screening Library” (2021).

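Protease assay of ClpP1P2, read by the AMC dye that it sets free. Target: ClpP1P2, Mycobacterium tuberculosis (UniProt P9WPC5 and UniProt P9WPC3). Compounds at 50 µM. Direction is inferred from only a few compounds that gave an IC50; most scored high, so higher reads as stronger inhibition. Most other retested compounds had strongly negative values. About 69,000 compounds were tested under these conditions; 0.015% (about 10) showed 50% or more at least once.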

The filed quantity is “Percent Effect” (%).
The record does not define 0% and 100%; most values in the screen are far below 50% and negative numbers occur (in some assays of this library far below -100).
Compounds were drawn at random from those tested, without regard to their results.

* CN1CCN(C(=O)[C@@H]2C[C@@H]3CCN(c4cccc(F)c4)C[C@H]3O2)CC1 : -10.99%
* CNc1ccc(C2CN(c3cc(C)ncn3)CCO2)nc1 (centres undefined) : -11.69%
* CCN1CCCC(CNC(=O)CCc2ccc(OC)c(F)c2)C1 (centres undefined) : 8.404%
* CN(Cc1cccnc1)C1CCCN(Cc2noc(C3CC3)n2)C1 (centres undefined) : -17.29%
* O=C(O)c1ccc2c(CN3CCCC3)c[nH]c2c1 : -24.12%
* Cc1cnc(-c2nc(O)c3c(n2)CN(C(=O)C2CCCO2)CC3)cn1 (centres undefined) : -12.81%
* Cc1cc(C)nc(C2CCN(C(=O)CCn3nnc4ccccc43)C2)n1 (centres undefined) : -15.44%
* CC(C)CSCCCNC(=O)C1CCOCC1 : -6.879%
* CN(Cc1ncc[nH]1)c1nc(-c2ccccn2)nc2c1CCNCC2 : -5.698%
* CC1=N[C@@]2(CC[C@@H]3CN(C(=O)NCC(C)C)C[C@@H]32)C(=O)N1C : -6.061%
* O=C(Nc1nc2c(s1)CN(S(=O)(=O)C1CC1)CC2)c1cccc(Cl)c1 : -3.408%
* CCn1cnc(NC(=O)N2CCC(c3ccc(Cl)cc3)C2)n1 (centres undefined) : -11.66%
* CC(=O)Nc1ccc(C(=O)N2CCSCC2c2ccc(C)o2)cc1 (centres undefined) : 0.905%
* Cc1noc(CN2CCN(C(=O)c3ccccn3)CC2)n1 : -20.92%
* O=C(NCC1CCOC1)N1CCN(Cc2ccc3c(c2)OCO3)CC1 (centres undefined) : -5.305%
* Fc1ccc(C2CN(c3ncnc4[nH]ncc34)CCO2)cc1 (centres undefined) : 7.009%
* Cn1ccnc1CN1CCCN(C(=O)CC(C2CC2)C2CC2)CC1 : -16.95%
* COc1cccc(NC(C(N)=O)c2ccc(Br)cc2)c1 (centres undefined) : -5.211%
* O=C(NCc1csc(Br)c1)N1CCOCC1 : -16.99%
* Cc1ccc(-c2nc(CN(Cc3cccs3)C3CCS(=O)(=O)C3)cs2)o1 (centres undefined) : -5.94%
* O=C(Cn1c(=O)n(Cc2ccco2)c2ncccc21)NC1CCCC1 : -11.9%
* CCNc1ncc(C(=O)NC(CC)c2ccnn2C)cn1 (centres undefined) : 4.577%
* c1csc(CN2CCO[C@H]3[C@H](OCC4CCCC4)CC[C@@H]32)n1 : 0.8466%
* CN(C(=O)NCc1ccncc1)C1CCCN(c2ccccc2)C1=O (centres undefined) : -3.687%
* CCCOc1ccc(C(=O)N2CCN3CCNC(=O)C3C2)cc1Cl (centres undefined) : 2.124%
* O=C1C[C@@H]2[C@H](CCN2Cc2ccccn2)N1Cc1ccncc1 : 11.49%
* Cc1nnc(NC(=O)CN2CCc3c(nc(C(C)C)n3C)C2)s1 : -7.414%
* Cc1n[nH]c(C)c1CNC(=O)NC1CCCCC1 : -9.222%
* Cc1cnn(CC2CCCCN2C(=O)c2sccc2C#N)c1 (centres undefined) : -14.67%
* CNC(=O)[C@H]1C[C@@H]2CN(C(=O)c3ccco3)C[C@@H]2N1S(C)(=O)=O : 11.12%
* CNC(=O)CN1CCC2(CC1)C[C@@H](O)[C@H](c1ccccc1)NC2=O : -4.82%
* O=C(NC1CCCCNC1=O)c1cc2ccccc2[nH]c1=O (centres undefined) : 1.028%
* COc1ccccc1C(O)Cn1cc(C(=O)NCC2CC2)nn1 (centres undefined) : -9.268%
* O=C(CCC1CCCN(C(=O)CCc2ccc(F)c(F)c2)C1)NC1CC1 (centres undefined) : -8.266%
* COCC1CC2(CCN(C(=O)c3occc3C)CC2)CO1 (centres undefined) : -26.11%
* CCN1CC(O)CN(C(=O)c2ccc(SC)cc2)CC1=O (centres undefined) : 6.448%
* Cc1cc(SC(C)(C)C)ccc1NC(C)C(=O)NC(N)=O (centres undefined) : -14.08%
* Cc1noc([C@@H]2CCCN2C(=O)C2CCN(C(=O)C3CCC3)CC2)n1 : 9.674%
* COc1cc(C)ccc1OCc1nc(C(=O)N2CCC(C)CC2)co1 : -9.364%
* COc1cccc(OCCNCc2c(C)nn(C)c2N(C)C)c1 : -3.011%
* O=C(NCC(Cc1cccc(F)c1)N1CCCC1=O)c1ccc[nH]c1=O (centres undefined) : -9.833%
* Cc1ccc2c(c1)N(C(=O)c1cc[nH]c(=O)c1)CC(C)O2 (centres undefined) : -3.597%
* CNC(=O)c1cccc(CN2CCC(N(C)Cc3ncc(C)o3)C2)c1 (centres undefined) : 10.42%
* CC(NC(=O)c1cccc(CN2CCN(C)CC2)c1)c1ccccn1 (centres undefined) : 2.951%
* Cc1ccc(CNC(c2cccc(F)c2)c2nccn2C)o1 (centres undefined) : 1.996%
* Cc1ccccc1-n1c(C)cc(C(=O)N2CCn3c(C)nnc3C2)c1C : -7.567%
* O=C(c1cccc(O)c1)N1CCC2(CCN2c2ncccn2)C1 (centres undefined) : -11.2%
* Cc1nc(NCCSc2cnn[nH]2)c2c(C)noc2n1 : -3.02%